Test results published in PMC6199744, “Development of Chemical Proteomics for the Folateome and Analysis of the Kinetoplastid Folateome” (ACS Infectious Diseases, 2018).
Further values from the same series stand in other lists.

Tested on: L. major lysate proteins
Experiment: Multitargeted bead mixture chemoproteomics, single concentration competition, proteome-wide
Type: binding
Settings: for fold change: vehicle control = 1

With `Nc1nc2cccc(-c3ccccc3)c2n1Cc1ccc(Cl)c(Cl)c1` [compound 3] as the compound, how does the fold change (protein LMJF.28.2460 RIBOSOMAL PROTEIN S29, PUTATIVE) read?
The fold change was 1.32.

And the fold change (protein LMJF.28.2750 ACTIVATED PROTEIN KINASE C RECEPTOR (LACK))?
The fold change was 0.97.

What about the fold change (protein LMJF.29.0120 […]-ATPASE SUBUNIT, PUTATIVE) of the same compound?
The fold change was 1.05.

And the fold change (protein LMJF.29.0760 […] BI[…], PUTATIVE,HEAT SHOCK PROTEIN 90, PUTATIVE)?
Its fold change is 0.93.

What about the fold change (protein LMJF.29.1240 HY[…], UNKNOWN FUNCTION) of the same compound?
The fold change was 1.06.

And the fold change (protein LMJF.29.1270 100 kDa heat shock protein (Hsp100))?
The fold change was 0.99.

What about the “fold change vs vehicle control” value (protein LMJF.30.0120 […] SYNTHASE) of the same compound?
The value was 0.97.

What about the fold change (protein LMJF.30.0750 4-METHYL-5(BETA-HYDROXYETHYL)-THIAZOLE MON[…] PROTEIN, PUTATIVE) of the same compound?
The fold change was 0.93.

And the fold change (protein LMJF.30.2330 HY[…], UNKNOWN FUNCTION)?
Its fold change is 0.93.

And the fold change (protein LMJF.30.2550 HEAT SHOCK 70-RELATED PROTEIN 1, MIT[…], PUTATIVE)?
The fold change was 1.09.

What about the fold change (protein LMJF.30.3090 HY[…], CONSERVED) of the same compound?
The fold change was 0.97.

What about the fold change (protein LMJF.30.3130 VALYL-TRNA SYNTHETASE, PUTATIVE) of the same compound?
Its fold change is 0.96.

And the fold change (protein LMJF.30.3430 HY[…], CONSERVED)?
The fold change was 0.98.

And the “fold change vs vehicle control” value (protein LMJF.30.3600 ATP SYNTHASE, EPSILON CHAIN, PUTATIVE)?
The value was 0.97.

What about the fold change (protein LMJF.30.3730 60S ACIDIC RIBOSOMAL PROTEIN P2, PUTATIVE) of the same compound?
Its fold change is 1.

What about the fold change (protein LMJF.32.0050 PROTEIN TRANSPORT PROTEIN SEC13, PUTATIVE) of the same compound?
The fold change was 1.06.

And the fold change (protein LMJF.32.0750 RNA BINDING PROTEIN, PUTATIVE)?
The fold change was 1.14.

What about the “fold change vs vehicle control” value (protein LMJF.32.1060 DYNEIN, PUTATIVE) of the same compound?
The value was 1.02.

And the fold change (protein LMJF.32.2800 HY[…], CONSERVED)?
Its fold change is 1.26.

What about the fold change (protein LMJF.32.3270 […] SUBUNIT, PUTATIVE) of the same compound?
Its fold change is 1.

What about the fold change (protein LMJF.32.3310 DIHYDROLIPOAMIDE DEHYDROGENASE, PUTATIVE) of the same compound?
Its fold change is 1.09.

What about the fold change (protein LMJF.32.3640 HY[…], CONSERVED) of the same compound?
The fold change was 1.09.

What about the fold change (protein LMJF.33.0240 THIOL-DEPENDENT REDUCTASE 1) of the same compound?
Its fold change is 0.89.

And the fold change (protein LMJF.33.0830 2,4-DIENOYL-COA REDUCTASE FADH1, PUTATIVE)?
Its fold change is 0.8.

And the fold change (protein LMJF.33.1590 HY[…], CONSERVED)?
Its fold change is 1.36.

And the fold change (protein LMJF.33.1750 […] […]-LIKE PROTEIN)?
Its fold change is 0.93.

What about the fold change (protein LMJF.33.2060 HY[…], CONSERVED) of the same compound?
The fold change was 0.91.

What about the fold change (protein LMJF.33.2270 HY[…], CONSERVED) of the same compound?
The fold change was 1.11.

And the fold change (protein LMJF.33.2340 SUCCINYL-COA:3-KETOACID-COENZYME A TRANSFERASE, MIT[…], PUTATIVE)?
The fold change was 0.96.

And the fold change (protein LMJF.33.2540 CARBOXYPEPTIDASE, PUTATIVE,METALLO-PEPTIDASE, CLAN MA(E), FAMILY M32)?
The fold change was 0.93.

And the fold change (protein LMJF.34.0140 MALATE DEHYDROGENASE)?
The fold change was 2.17.

And the fold change (protein LMJF.34.0840 T[…] 1-BETA, PUTATIVE)?
The fold change was 1.05.

And the fold change (protein LMJF.34.0930 HY[…], CONSERVED)?
The fold change was 0.96.

What about the fold change (protein LMJF.34.2340 ASPARAGINYL-TRNA SYNTHETASE, PUTATIVE) of the same compound?
Its fold change is 0.84.

What about the “fold change vs vehicle control” value (protein LMJF.34.2580 HY[…], CONSERVED) of the same compound?
Its value is 1.1.

What about the fold change (protein LMJF.34.3250 PUTATIVE PYRUVATE/INDOLE-PYRUVATE CARBOXYLASE, PUTATIVE) of the same compound?
The fold change was 0.91.

And the fold change (protein LMJF.35.0070 PROHIBITIN, PUTATIVE)?
Its fold change is 1.11.

And the fold change (protein LMJF.35.0240 60S RIBOSOMAL PROTEIN L30)?
The fold change was 1.03.

And the fold change (protein LMJF.35.0360 ENOYL-COA HYDRATASE/ISOMERASE FAMILY PROTEIN, CONSERVED)?
Its fold change is 1.13.

What about the fold change (protein LMJF.35.0820 ASPARTATE AMINOTRANSFERASE, PUTATIVE) of the same compound?
Its fold change is 0.94.

What about the fold change (protein LMJF.35.1220 SHORT CHAIN DEHYDROGENASE, PUTATIVE) of the same compound?
The fold change was 1.28.

What about the fold change (protein LMJF.35.1230 SHORT CHAIN DEHYDROGENASE, PUTATIVE) of the same compound?
The fold change was 1.11.

What about the fold change (protein LMJF.35.3080 GLYCEROL KINASE, GLYCOSOMAL, PUTATIVE) of the same compound?
The fold change was 1.11.

What about the fold change (protein LMJF.35.3230 C[…] LYASE, PUTATIVE) of the same compound?
Its fold change is 1.07.

And the fold change (protein LMJF.35.4420 MIT[…] TRANSPORTER, PUTATIVE)?
Its fold change is 1.16.

What about the fold change (protein LMJF.36.0070 STRESS-INDUCIBLE PROTEIN STI1 HOMOLOG) of the same compound?
Its fold change is 0.92.

What about the fold change (protein LMJF.36.0210 SET DOMAIN PROTEIN, PUTATIVE) of the same compound?
Its fold change is 1.

What about the fold change (protein LMJF.36.0320 […] 2 SUBUNIT, PUTATIVE) of the same compound?
The fold change was 0.99.

What about the fold change (protein LMJF.36.0930 40S RIBOSOMAL PROTEIN S18, PUTATIVE) of the same compound?
The fold change was 1.32.

And the fold change (protein LMJF.36.1260 FRUCTOSE-1,6-BI[…])?
Its fold change is 1.12.

What about the fold change (protein LMJF.36.1430 T[…] 1-BETA, PUTATIVE) of the same compound?
Its fold change is 1.54.

And the fold change (protein LMJF.36.1600 […] 1 SUBUNIT, PUTATIVE)?
Its fold change is 1.01.

What about the fold change (protein LMJF.36.1650 […] 5 SUBUNIT, PUTATIVE) of the same compound?
The fold change was 0.86.

And the fold change (protein LMJF.36.2030 CHAPERONIN HSP60, MIT[…])?
Its fold change is 1.12.

What about the fold change (protein LMJF.36.2160 HY[…], CONSERVED) of the same compound?
Its fold change is 0.96.

And the fold change (protein LMJF.36.2750 ACETYLTRANSFERASE-LIKE PROTEIN)?
Its fold change is 1.02.

What about the fold change (protein LMJF.36.2950 SUCCINYL-COA LIGASE GDP-FORMING] BETA-CHAIN, PUTATIVE) of the same compound?
Its fold change is 1.05.

And the fold change (protein LMJF.36.3210 14-3-3 PROTEIN-LIKE PROTEIN)?
The fold change was 0.86.

And the fold change (protein LMJF.36.3410 SHORT CHAIN DEHYDROGENASE-LIKE PROTEIN)?
Its fold change is 1.26.

What about the fold change (protein LMJF.36.3530 POLYUBIQUITIN, PUTATIVE) of the same compound?
Its fold change is 0.99.

And the fold change (protein LMJF.36.4420 60S RIBOSOMAL PROTEIN L22, PUTATIVE)?
The fold change was 1.12.

And the fold change (protein LMJF.36.4460 HY[…], CONSERVED)?
The fold change was 1.03.

What about the fold change (protein LMJF.36.6540 […] ENDO-1-LIKE PROTEIN) of the same compound?
Its fold change is 1.19.
